## Results from one PubChem assay

By UniProt entry, the sequences of proteins in these tests, tags left out.
UniProt O94782, whole entry, looked up, target on record: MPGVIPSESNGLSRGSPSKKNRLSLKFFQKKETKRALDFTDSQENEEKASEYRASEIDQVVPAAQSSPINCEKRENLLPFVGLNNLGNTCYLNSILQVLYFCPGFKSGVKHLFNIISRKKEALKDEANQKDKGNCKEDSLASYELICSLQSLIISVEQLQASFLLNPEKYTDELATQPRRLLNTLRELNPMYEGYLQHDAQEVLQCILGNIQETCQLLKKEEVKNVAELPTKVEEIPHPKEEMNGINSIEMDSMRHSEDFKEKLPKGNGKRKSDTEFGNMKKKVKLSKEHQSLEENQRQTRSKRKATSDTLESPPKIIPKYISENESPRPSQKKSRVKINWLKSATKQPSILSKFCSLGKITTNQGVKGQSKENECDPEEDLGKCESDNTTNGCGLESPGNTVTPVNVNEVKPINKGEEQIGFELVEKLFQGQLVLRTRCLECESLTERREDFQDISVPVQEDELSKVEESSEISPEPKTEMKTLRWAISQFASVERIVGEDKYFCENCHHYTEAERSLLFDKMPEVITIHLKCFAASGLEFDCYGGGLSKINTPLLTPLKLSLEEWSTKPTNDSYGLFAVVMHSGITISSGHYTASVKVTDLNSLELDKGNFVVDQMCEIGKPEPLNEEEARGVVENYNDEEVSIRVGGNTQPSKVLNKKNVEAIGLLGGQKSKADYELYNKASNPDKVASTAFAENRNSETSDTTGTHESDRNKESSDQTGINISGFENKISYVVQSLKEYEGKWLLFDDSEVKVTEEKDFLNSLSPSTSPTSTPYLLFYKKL

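Purified human USP1/UAF1 enzyme complex; fluorescence from ubiquitin-rhodamine substrate cleavage, read kinetically six times at one-minute intervals after substrate addition.
Compounds were titrated over 13 concentrations from about 0.0037 µM up to roughly 110 µM, the top dose varying by compound.
The value is the fitted AC50 from the dose-response series, and a lower number means a more potent inhibitor.
Calls come from curve class and fitted log AC50: scores 40-100 are active, 1-39 inconclusive (as here, weak, partial or poorly fitted curves), and 0 inactive.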

Values are in nM.
Every entry below has the call inconclusive.
These entries are mostly ones the record files as inconclusive; other results of the assay are not listed here.
Potencies fitted to partial, single-point or poorly fitting curves are rough.
Some entries filed as inconclusive have a full curve.
Activity scores are not listed here.

* O=C(Nc1ccccc1)OC[C@H](CN1CCCCC1)OC(=O)Nc1ccccc1 : Potency 7080 nM (inhibitor, partial curve, poor fit)
* NC(N)=NCCCCN=C(N)N : Potency 39810 nM (inhibitor, partial curve, poor fit)
* COc1cc2c(cc1OC)-c1c(oc3cc(O)cc(O)c3c1=O)CO2 : Potency 56234 nM (inhibitor, partial curve)
* CC[C@H](NC(=O)c1c(C)c(-c2ccccc2)nc2ccccc12)c1ccccc1 : Potency 31622 nM (inhibitor, full curve)
* NC[C@H](CC(=O)O)c1ccc(Cl)cc1 : Potency 7943 nM (inhibitor, partial curve, poor fit)
* CCCCOC(=O)c1ccccc1C(=O)OCCCC : Potency 50118 nM (inhibitor, partial curve)
* Cc1ccc(S(=O)(=O)NCl)cc1 : Potency 79432 nM (inhibitor, partial curve, poor fit)
* Cc1ccccc1-c1nccc(Nc2ccc(F)cc2)n1 : Potency 31622 nM (inhibitor, partial curve, poor fit)
* COC(=O)[C@H]1C(OC)[C@@H](OC(=O)c2cc(OC)c(OC)c(OC)c2)C[C@@H]2CN3CCc4c([nH]c5cc(OC)ccc45)[C@H]3C[C@H]21 (stereo partly specified) : Potency 89125 nM (inhibitor, partial curve, poor fit)
* CCOC(=O)n1ccn(C)c1=S : Potency 39810 nM (inhibitor, single point)
* CN1CCN(c2ccnc(-c3cccc(NS(C)(=O)=O)c3)n2)CC1 : Potency 56234 nM (inhibitor, partial curve, poor fit)
* COc1cccc(OC)c1C(=O)NC1C(=O)N2C1SC(C)(C)C2C(=O)O (stereo unspecified) : Potency 112202 nM (inhibitor, partial curve, poor fit)
* O=c1ccc2[nH]cc(C3=CCNCC3)c2[nH]1 : Potency 56234 nM (inhibitor, partial curve, poor fit)
* CN(Cc1ccco1)c1nc(-c2ccccc2Cl)nc2ccccc12 : Potency 56234 nM (inhibitor, partial curve, poor fit)
* COc1c(CC(=O)c2cc3c(cc2O)OC(C)(C)C(O)C3)ccc2c1C=CC(C)(C)O2 (stereo unspecified) : Potency 56234 nM (inhibitor, partial curve, poor fit)
* Cc1ccc(-c2nn(CC(C)(C)C)c3ncnc(N)c23)cc1 : Potency 35481 nM (inhibitor, partial curve)

Source: PubChem BioAssay AID504865 (NCATS, 2011).